# Experimental data: the supplement of paper PMC10032668
# Protein sequences, listed by entry. Tags and fused reporters are not part of them.
# MORF4L2, Q15014, UniProt Q15014, whole entry: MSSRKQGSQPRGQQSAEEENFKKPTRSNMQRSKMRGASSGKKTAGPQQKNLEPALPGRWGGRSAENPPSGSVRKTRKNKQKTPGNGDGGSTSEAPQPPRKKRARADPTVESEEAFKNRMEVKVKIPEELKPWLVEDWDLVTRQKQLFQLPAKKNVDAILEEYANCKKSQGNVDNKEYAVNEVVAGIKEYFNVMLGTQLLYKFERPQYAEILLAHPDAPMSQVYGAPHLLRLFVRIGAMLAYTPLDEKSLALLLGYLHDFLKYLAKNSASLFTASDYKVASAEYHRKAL
# PIN1, Q13526, UniProt Q13526, whole entry: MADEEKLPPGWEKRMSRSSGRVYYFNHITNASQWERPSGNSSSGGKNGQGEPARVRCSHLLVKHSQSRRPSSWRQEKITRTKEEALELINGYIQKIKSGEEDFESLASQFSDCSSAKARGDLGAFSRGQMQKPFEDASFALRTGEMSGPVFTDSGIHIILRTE
# PLK1, P53350, UniProt P53350, whole entry: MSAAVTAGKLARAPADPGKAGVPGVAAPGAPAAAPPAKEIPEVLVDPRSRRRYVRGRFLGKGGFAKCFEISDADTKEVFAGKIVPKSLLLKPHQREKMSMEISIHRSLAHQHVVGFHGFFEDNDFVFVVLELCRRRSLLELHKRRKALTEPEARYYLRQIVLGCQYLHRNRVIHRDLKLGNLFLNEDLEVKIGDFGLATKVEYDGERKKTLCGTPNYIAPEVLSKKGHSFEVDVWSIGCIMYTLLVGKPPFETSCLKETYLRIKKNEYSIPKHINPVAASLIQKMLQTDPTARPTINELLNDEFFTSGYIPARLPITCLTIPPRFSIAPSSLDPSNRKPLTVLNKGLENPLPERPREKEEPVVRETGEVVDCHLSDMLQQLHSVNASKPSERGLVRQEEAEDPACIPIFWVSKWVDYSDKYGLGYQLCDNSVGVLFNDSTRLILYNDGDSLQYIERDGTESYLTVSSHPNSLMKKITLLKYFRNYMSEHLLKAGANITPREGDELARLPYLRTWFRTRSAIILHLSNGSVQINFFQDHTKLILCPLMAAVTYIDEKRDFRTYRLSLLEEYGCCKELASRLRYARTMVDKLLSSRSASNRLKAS
# CRIPT, Q9P021, UniProt Q9P021, whole entry: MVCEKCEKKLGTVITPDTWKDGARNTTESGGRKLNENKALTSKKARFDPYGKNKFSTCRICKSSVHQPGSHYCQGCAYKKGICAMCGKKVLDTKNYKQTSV
# HIST1H1D, P16402, UniProt P16402, whole entry: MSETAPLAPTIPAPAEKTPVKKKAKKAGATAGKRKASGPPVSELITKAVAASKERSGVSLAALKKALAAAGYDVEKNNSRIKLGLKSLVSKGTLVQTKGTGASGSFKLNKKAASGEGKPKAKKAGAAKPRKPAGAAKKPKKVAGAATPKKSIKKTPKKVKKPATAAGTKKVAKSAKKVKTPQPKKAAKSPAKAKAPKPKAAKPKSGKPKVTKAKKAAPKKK
# ± gives the standard deviation of the averaged measurements. The list shows a part of the results. The list holds hits alone, and they repeat only in part.
# Legend:
# Test in all cases: PRISMA enrichment of interactor (LFQ) in peptide spot vs all other peptide spots (log2 fold change); higher = stronger / more specific binding of the interactor to the peptide
# [1] = target: ALYREF, Q86V81
# Experimental: (§1)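 PRISMA: 15-aa overlapping tiles (offset 8 aa) of 60 microproteins, plus SOS1/GLUT1 control peptides, were spot-synthesized on cellulose membranes in triplicate. Membranes were incubated with benzonase-treated HEK293T lysate, and bound proteins were identified by LC-MS/MS with LFQ. Enrichment is the log2 fold change of each protein in one spot versus all other spots. Only interactors passing the significance cutoff are listed.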
# [2] = target: C19orf53, Q9UNZ5
# Experimental: as §1
# [3] = target: CFAP20, Q9Y6A4
# Experimental: as §1
# [4] = target: CLTA, P09496
# Experimental: as §1
# [5] = target: CLTB, P09497
# Experimental: as §1
# [6] = target: CLTCL1, P53675
# Experimental: as §1
# [7] = target: CSNK1A1, P48729
# Experimental: as §1
# [8] = target: CSNK1D, P48730
# Experimental: as §1
# [9] = target: CSNK1E, P49674
# Experimental: as §1
# [10] = target: CXorf56, Q9H5V9
# Experimental: as §1
# [11] = target: DDX49, Q9Y6V7
# Experimental: as §1
# [12] = target: DNAJA3, Q96EY1
# Experimental: as §1
# [13] = target: EMG1, Q92979
# Experimental: as §1
# [14] = target: EWSR1, Q01844
# Experimental: as §1
# [15] = target: FIP1L1, Q6UN15
# Experimental: as §1
# [16] = target: FOCAD, Q5VW36
# Experimental: as §1
# [17] = target: GABARAPL2, P60520
# Experimental: as §1
# [18] = target: HAGH, Q16775
# Experimental: as §1
# [19] = target: LARP7, Q4G0J3
# Experimental: as §1
# [20] = target: MORF4L2, Q15014
# Experimental: as §1
# [21] = target: NUDT16L1, Q9BRJ7
# Experimental: as §1
# [22] = target: PIN1, Q13526
# Experimental: as §1
# [23] = target: PLK1, P53350
# Experimental: as §1
# [24] = substrate: PPIF, P30405
# Experimental: as §1
# [25] = target: PRMT1, Q99873
# Experimental: as §1
# [26] = target: RAB34
# Experimental: as §1
# [27] = target: RBMX, P38159
# Experimental: as §1
# [28] = target: ZNF22, P17026
# Experimental: as §1
# [29] = target: ZNF687, Q8N1G0
# Experimental: as §1
# [30] = target: ANXA6, P08133
# Experimental: as §1
# [31] = target: C11orf98, E9PRG8
# Experimental: as §1
# [32] = target: CHTOP, Q9Y3Y2
# Experimental: as §1
# [33] = target: CIRBP, Q14011
# Experimental: as §1
# [34] = target: CLTC, Q00610
# Experimental: as §1
# [35] = target: CRIPT, Q9P021
# Experimental: as §1
# [36] = target: CSRP2, Q16527
# Experimental: as §1
# [37] = target: DECR1, Q16698
# Experimental: as §1
# [38] = target: DUSP3, P51452
# Experimental: as §1
# [39] = target: EDF1, O60869
# Experimental: as §1
# [40] = target: FAM98B, Q52LJ0
# Experimental: as §1
# [41] = target: FBXO5, Q9UKT4
# Experimental: as §1
# [42] = target: FUS, P35637
# Experimental: as §1
# [43] = target: HIST1H1D, P16402
# Experimental: as §1
# [44] = target: HMGA1, P17096
# Experimental: as §1
# [45] = target: HMGN1, P05114
# Experimental: as §1
# [46] = target: HMGN2, P05204
# Experimental: as §1
# [47] = target: HSPA9, P38646
# Experimental: as §1
# [48] = target: LYZ, P61626
# Experimental: as §1
# [49] = target: MAZ, P56270
# Experimental: as §1
binder,measurement,setting,value
MRPVEELWLGTPPLL [NAV2-AS2],PRISMA enrichment of interactor (log2),[1],6.15 ± 1.4
same,PRISMA enrichment of interactor (log2),[2],7.33
same,PRISMA enrichment of interactor (log2),[3],4.44
same,PRISMA enrichment of interactor (log2),[4],6.36
same,PRISMA enrichment of interactor (log2),[5],5.49
same,PRISMA enrichment of interactor (log2),[6],4
same,PRISMA enrichment of interactor (log2),[7],5.27
same,PRISMA enrichment of interactor (log2),[8],4.98
same,PRISMA enrichment of interactor (log2),[9],5.4
same,PRISMA enrichment of interactor (log2),[10],6.53
same,PRISMA enrichment of interactor (log2),[11],5.58
same,PRISMA enrichment of interactor (log2),[12],4.67
same,PRISMA enrichment of interactor (log2),[13],5.67
same,PRISMA enrichment of interactor (log2),[14],5.61
same,PRISMA enrichment of interactor (log2),[15],4.58
same,PRISMA enrichment of interactor (log2),[16],3.92
same,PRISMA enrichment of interactor (log2),[17],5.73
same,PRISMA enrichment of interactor (log2),[18],10
same,PRISMA enrichment of interactor (log2),[19],6.34
same,PRISMA enrichment of interactor (log2),[20],4.83
same,PRISMA enrichment of interactor (log2),[21],5.3
same,PRISMA enrichment of interactor (log2),[22],4.84
same,PRISMA enrichment of interactor (log2),[23],5.34
same,PRISMA enrichment of interactor (log2),[24],6.68
same,PRISMA enrichment of interactor (log2),[25],4.84
same,PRISMA enrichment of interactor (log2),[26],3.75
same,PRISMA enrichment of interactor (log2),[27],4.77
same,PRISMA enrichment of interactor (log2),[28],4.47
same,PRISMA enrichment of interactor (log2),[29],7.44
TCHCEQLLLLDDPGH [LINC01128],PRISMA enrichment of interactor (log2),[1],5.91
same,PRISMA enrichment of interactor (log2),[30],6.29
same,PRISMA enrichment of interactor (log2),[31],5.45
same,PRISMA enrichment of interactor (log2),[2],7.82
same,PRISMA enrichment of interactor (log2),[32],5.7
same,PRISMA enrichment of interactor (log2),[33],5.8
same,PRISMA enrichment of interactor (log2),[4],6.86
same,PRISMA enrichment of interactor (log2),[5],6.47
same,PRISMA enrichment of interactor (log2),[34],5.16
same,PRISMA enrichment of interactor (log2),[6],4.02
same,PRISMA enrichment of interactor (log2),[35],4.61
same,PRISMA enrichment of interactor (log2),[7],5.32
same,PRISMA enrichment of interactor (log2),[36],4.52
same,PRISMA enrichment of interactor (log2),[10],5.75
same,PRISMA enrichment of interactor (log2),[37],5.99
same,PRISMA enrichment of interactor (log2),[38],5.2
same,PRISMA enrichment of interactor (log2),[39],5.54
same,PRISMA enrichment of interactor (log2),[13],5.91
same,PRISMA enrichment of interactor (log2),[40],7.96
same,PRISMA enrichment of interactor (log2),[41],4.65
same,PRISMA enrichment of interactor (log2),[16],4.07
same,PRISMA enrichment of interactor (log2),[42],5.16
same,PRISMA enrichment of interactor (log2),[43],5.03
same,PRISMA enrichment of interactor (log2),[44],5.25
same,PRISMA enrichment of interactor (log2),[45],6.88
same,PRISMA enrichment of interactor (log2),[46],5.9
same,PRISMA enrichment of interactor (log2),[47],4.22
same,PRISMA enrichment of interactor (log2),[48],3.8
same,PRISMA enrichment of interactor (log2),[49],4.91
same,PRISMA enrichment of interactor (log2),[20],6.22

# Some of the entries so far, tab-delimited.
binder	measurement	setting	value
TCHCEQLLLLDDPGH [LINC01128]	PRISMA enrichment of interactor (log2)	[35]	4.61
same	PRISMA enrichment of interactor (log2)	[7]	5.32
same	PRISMA enrichment of interactor (log2)	[36]	4.52
same	PRISMA enrichment of interactor (log2)	[10]	5.75
same	PRISMA enrichment of interactor (log2)	[37]	5.99
same	PRISMA enrichment of interactor (log2)	[38]	5.2
same	PRISMA enrichment of interactor (log2)	[39]	5.54
same	PRISMA enrichment of interactor (log2)	[13]	5.91
same	PRISMA enrichment of interactor (log2)	[40]	7.96
same	PRISMA enrichment of interactor (log2)	[41]	4.65
same	PRISMA enrichment of interactor (log2)	[16]	4.07
same	PRISMA enrichment of interactor (log2)	[42]	5.16
same	PRISMA enrichment of interactor (log2)	[43]	5.03
